From PubChem BioAssay AID2685 (National Center for Advancing Translational Sciences (NCATS), 2010) come the findings set out here.

The test is described as follows: qHTS Assay for Lipid Storage Modulators in Drosophila S3 Cells.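 On cell number change: cells counted by Cell Tracker Red CMTPX staining in the red channel.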 Particulars: BODIPY lipid droplet fluorescence, 18-24 h; for cell number change: measured here: cell count max response, cells fed with added oleic acid. The essentials: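 Drosophila S3 cells got compounds at several concentrations plus oleic acid (400 uM solution). Laser-scanning cytometry with 488 nm excitation read lipid droplets at 500-530 nm and cells at 575-640 nm. Percent activity was relative to 20 uM Triacsin C.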

[1] abbreviates: measured here: lipid fluorescence (Fed channel) AC50, cells fed with added oleic acid.
Setting [2] is: measured here: cell number channel AC50, cells fed with added oleic acid.

Some of the results follow. Further columns of the screen follow, without active or inactive calls. Compounds called inactive in the main read-out are mostly missing here. Words in brackets tell the shape of the fitted curve; partial curves, single points and poor fits give uncertain potencies.

As to `O=C(Cc1cccs1)N1CCCC(c2nc3c(nnn3Cc3cccc(Cl)c3)c(=O)[nH]2)C1` (stereo not drawn), the cell number change was -11%. Also, the AC50 under setting [1] was 29.1 µM [rising, single point].

As for `CN(C(=O)Cn1c(=O)oc2ccccc21)C1CCCCC1`, the cell number change came to 3.48%. Moreover, the concentration at half-maximal activity (AC50) under setting [1] was 2.91 µM [rising, full curve, poor fit].

For the compound `COCCN(C(=O)CSc1nnc(-c2ccccc2F)o1)c1c(N)n(CC(C)C)c(=O)[nH]c1=O`, the cell number change was 1.2%.

As for `O=C(Cc1ccc(Cl)cc1)NCC(=O)N1CCCC1`, the cell number change is -9.75%. Under setting [2], the AC50 was 1.84 µM [falling, partial curve, poor fit]. Besides, the AC50 under setting [1] was 0.164 µM [falling, full curve].

For the compound `Cc1cc(C)c2c(n1)nn1c(N3CCN(Cc4ccccc4)CC3)cc(C)nc21`, the cell number change worked out at 13.5%. For the same compound, the AC50 under setting [2] was 0.517 µM [rising, full curve]. Also, the AC50 under setting [1] is 20.6 µM [rising, single point].

As to `Cn1c(-c2cc(Br)ccc2O)n[nH]c1=S`, the cell number change was -32.5%. Besides, the AC50 under setting [2] is 13 µM [falling, partial curve]. Besides, under setting [1], the AC50 was 0.58 µM [rising, full curve, poor fit].

`COC(=O)CC1SC(=O)NC1=Nc1ccc(C)cc1` (stereo not drawn): the half-maximal activity concentration (AC50) under setting [1] was 0.58 µM [rising, single point].

Take `COc1cccc(N(CC(=O)N/N=C(\C)c2cccs2)S(C)(=O)=O)c1`: the AC50 under setting [1] is 5.17 µM [rising, partial curve, poor fit].

For `CC(C)c1ccc(C2C3=C(CC(C)(C)CC3=O)NC3=C2C(=O)c2ccccc23)cc1` (stereo not drawn), the cell number change was -59.2%. Besides, the AC50 under setting [2] was 25.9 µM [falling, partial curve]. Under setting [1], the AC50 was 23.1 µM [falling, partial curve].

Consider `Cc1ccc(S(=O)(=O)NCC(c2ccc3c(c2)OCO3)N2CCOCC2)cc1` (stereo not drawn), for which the AC50 was 0.731 µM [falling, full curve, poor fit] under setting [2] and 0.651 µM [falling, partial curve] under setting [1].

On to `O=C(N=C1SCC(=O)N1c1ccccc1Cl)c1ccccc1`, for which the cell number change was -24.1%. The AC50 under setting [2] is 0.164 µM [falling, partial curve, poor fit]. Moreover, the AC50 under setting [1] was 0.00461 µM [falling, full curve, poor fit].

As to `CCn1c(C)nc2cc(C(N)=O)ccc21`, the cell number change is -13.4%. Also, under setting [1], the AC50 is 6.51 µM [falling, single point].

As to `Cc1cccc(N2C(=O)c3cccc4cccc(c34)C2=O)c1`, the cell number change came to 18.6%. Further, the concentration at half-maximal activity (AC50) under setting [2] was 0.731 µM [rising, full curve, poor fit].

As to `O=C(O)c1ccc2c(c1)CCC2`, the cell number change was -17.3%.

Take `OCC[C@@H]1C[C@H](O)[C@@H](O)[C@@]2(OCc3ccccc32)O1`: the cell number change was 26.3%.

`O=C(NCc1ccccn1)c1ccccc1OCc1ccc(Cl)cc1Cl`: the cell number change was determined as 39.5%. The AC50 under setting [2] is 18.4 µM [rising, single point]. Besides, under setting [1], the concentration at half-maximal activity (AC50) is 0.116 µM [rising, full curve, poor fit].
